# In the supplement of paper PMC12823440, “Inhibitors supercharge kinase turnover through native proteolytic circuits” (Nature, 2025):
# Amino acid sequences for entries named in this document (tags omitted).
# UniProt Q9Y463, whole entry, looked up: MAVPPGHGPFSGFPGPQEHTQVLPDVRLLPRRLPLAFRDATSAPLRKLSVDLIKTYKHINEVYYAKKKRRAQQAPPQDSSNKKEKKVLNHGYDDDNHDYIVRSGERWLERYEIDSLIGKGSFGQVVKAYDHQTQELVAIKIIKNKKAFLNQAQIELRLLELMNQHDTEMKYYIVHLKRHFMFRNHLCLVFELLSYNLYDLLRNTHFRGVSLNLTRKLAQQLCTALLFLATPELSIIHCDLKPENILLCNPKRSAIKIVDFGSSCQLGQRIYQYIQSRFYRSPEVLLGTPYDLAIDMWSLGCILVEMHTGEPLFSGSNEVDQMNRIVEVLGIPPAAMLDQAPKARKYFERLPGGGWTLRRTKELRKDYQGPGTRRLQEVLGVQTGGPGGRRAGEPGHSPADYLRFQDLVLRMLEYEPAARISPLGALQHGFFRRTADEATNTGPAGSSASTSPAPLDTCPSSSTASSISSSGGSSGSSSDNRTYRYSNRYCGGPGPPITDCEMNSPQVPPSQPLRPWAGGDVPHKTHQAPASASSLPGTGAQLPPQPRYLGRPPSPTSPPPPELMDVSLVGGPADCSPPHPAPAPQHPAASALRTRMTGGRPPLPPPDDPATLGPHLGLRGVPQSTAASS
# Where a name gives a salt, the structure may show the parent alone. This is one part of the list. Hit calls seldom repeat between salt and free forms of one compound.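 Kinases, fused to nanoluciferase, were expressed in K562 cells; luminescence was measured every 4 h from 2 to 18 h as percent of control (DMSO = 100%, positive control = 0%). A time point is decreased if signal falls significantly (2 sigma). Hits were called by the authors by a rule that is not shown; the count of time points alone does not decide it.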
# Target: DYRK1B (UniProt Q9Y463)
# Experiment: number of time points (of 5) at which kinase-Nluc abundance scored as decreased, DMSO-normalised (count); higher = more persistent destabilization
# Details: K562; 2-18 h
row,SMILES,number of time points
1,Cn1cnc2c(F)c(Nc3ccc(Br)cc3Cl)c(C(=O)NOCCO)cc21 [Selumetinib (sulfate)] (10 µM),0
2,COc1ncc(Cl)cc1S(=O)(=O)Nc1ccc(F)c(C#Cc2cnc(N)nc2)c1F (2.5 µM),0
3,CNC(=O)c1cc(COc2nnc(Nc3ccc(Cl)cc3)c3ccoc23)ccn1 [Telatinib] (10 µM),0
4,CC(C)(C)c1cc(O)ccc1O (10 µM),0
5,Cn1cnc2c(F)c(Nc3ccc(Br)cc3Cl)c(C(=O)NOCCO)cc21 [Selumetinib] (10 µM),0
6,Cc1c(-c2c(F)cc(C(N)=O)c3[nH]c4c(c23)CC[C@H](C(C)(C)O)C4)cccc1-n1c(=O)c2cccc(F)c2n(C)c1=O (2.5 µM),0
7,O=C(CSC1=NCCN1)NC1CCCCCC1 [ICCB-19 (hydrochloride)] (2.5 µM),0
8,Cn1cc(-c2ccc3nnc(Sc4ccc5ncccc5c4)n3n2)cn1 (10 µM),0
9,Cc1ccccc1-c1c2nccc(-c3ccc(F)cc3F)c2cc[n+]1[O-] (10 µM),0
10,Cn1nccc1Nc1nccc(-c2ccn([C@H](CO)c3ccc(Cl)c(F)c3)c(=O)c2)n1 [Ravoxertinib hydrochloride] (10 µM),0
11,OCCn1cc(-c2ccc3c(c2)CC/C3=N\O)c(-c2ccncc2)n1 (10 µM),0
12,Cc1[nH]c(/C=C2\C(=O)Nc3ccccc32)c(C)c1CCC(=O)O [Orantinib] (10 µM),0
13,NC(=O)c1nnc(N[C@@H]2CCCC[C@@H]2N)nc1Nc1cccc2cc[nH]c12 (10 µM),0
14,O=C(NOCC(O)CO)c1cc(Br)c(F)c(F)c1Nc1ccc(I)cc1F (configuration not stated) (2.5 µM),0
15,CN(C)CCSSCCNC(=O)C1CCN(C(=O)CSc2ccc(Cl)cc2)CC1 (10 µM),0
16,CCC(C)N1c2ccccc2C(=O)N(C)c2cnc(Nc3ccc(C(=O)N4CCC(N5CCN(C)CC5)CC4)cc3OC)nc21 (configuration not stated) (2.5 µM),0

# 6 entries from above, tab-delimited.
row	SMILES	number of time points
2	COc1ncc(Cl)cc1S(=O)(=O)Nc1ccc(F)c(C#Cc2cnc(N)nc2)c1F (2.5 µM)	0
7	O=C(CSC1=NCCN1)NC1CCCCCC1 [ICCB-19 (hydrochloride)] (2.5 µM)	0
8	Cn1cc(-c2ccc3nnc(Sc4ccc5ncccc5c4)n3n2)cn1 (10 µM)	0
12	Cc1[nH]c(/C=C2\C(=O)Nc3ccccc32)c(C)c1CCC(=O)O [Orantinib] (10 µM)	0
14	O=C(NOCC(O)CO)c1cc(Br)c(F)c(F)c1Nc1ccc(I)cc1F (configuration not stated) (2.5 µM)	0
15	CN(C)CCSSCCNC(=O)C1CCN(C(=O)CSc2ccc(Cl)cc2)CC1 (10 µM)	0

# (continued)

row,SMILES,number of time points
1,CN(C)CCCOc1ccc(-c2ccc3ncc4c(c3c2)n(C2CCOCC2)c(=O)n4C)cn1 (2 µM),0
2,COc1ccc(-c2ccc3c(N4CCOCC4)nc(N4C[C@@H](C)O[C@@H](C)C4)nc3n2)cc1CO (2.5 µM),0
3,CC#CC(=O)N1CC[C@@H](n2c(=O)n(-c3ccc(Oc4ccccc4)cc3)c3c(N)ncnc32)C1 [Tirabrutinib (hydrochloride)] (10 µM),0
4,NC(=O)c1ccc(-c2nc(-c3ccc4c(c3)OCCO4)c(-c3ccccn3)[nH]2)cc1 (10 µM),0
5,FC(F)(F)c1ccc(CNc2ccc(Cc3c[nH]c4ncccc34)cn2)cc1 (10 µM),0
6,COc1ccc(Cl)c(Nc2nc3ccccc3nc2NS(=O)(=O)c2cccc(NC(=O)C(C)(C)N)c2)c1 [Pilaralisib] (10 µM),0
7,Oc1ccc(Nc2nc(-c3ccc(Cl)cc3)cs2)cc1 (10 µM),0
8,Cc1nc(-c2cn3c(n2)-c2ccc(-c4cnn(C(C)(C)C(N)=O)c4)cc2OCC3)n(C(C)C)n1 [Taselisib] (10 µM),0
9,COc1cccc(OC)c1C(=O)OCc1cc(O)ccc1O[C@@H]1O[C@H](CO)[C@@H](O)[C@H](O)[C@H]1O [Curculigoside] (10 µM),0
10,C[C@@H]1CCN(C(=O)CC#N)C[C@@H]1N(C)c1ncnc2[nH]ccc12 [Tofacitinib (citrate)] (10 µM),0
11,CCc1cc2c(cc1N1CCC(N3CCOCC3)CC1)C(C)(C)c1[nH]c3cc(C#N)ccc3c1C2=O [Alectinib] (10 µM),0
12,O=C(O)CCC(=O)Nc1ccc(Br)cn1 [Bikinin] (10 µM),0
13,COc1cc(Nc2ncc(F)c(Nc3ccc4c(n3)N(COP(=O)(O)O)C(=O)C(C)(C)O4)n2)cc(OC)c1OC [Fostamatinib (disodium hexahydrate)] (10 µM),0
14,C[C@@H]1CCN(C(=O)CC#N)C[C@@H]1N(C)c1ncnc2[nH]ccc12 [Tofacitinib] (10 µM),0
15,Nc1cc(C(F)(F)F)c(-c2cc(N3CCOCC3)nc(N3CCOCC3)n2)cn1 [Buparlisib (Hydrochloride)] (2.5 µM),0
16,O=C(NCCN1CCCC1)c1cc(-c2ccc(CN3CCOCC3)cc2)nc2ccc(F)cc12 (10 µM),0
